Results are given in words; binding and its absence hold for the method and conditions named. Binding seen in cells or lysates may run through a third protein. Here binding means that the protein was enriched with, or labelled near, the bait; the list need not be complete.
Target: Integrin alpha 2 (human (endogenous in PANC-1 and AsPC-1)) (UniProt P17301)
Assay: affinity purification with mass spectrometry; immunoprecipitation followed by LC-MS/MS (Q Exactive Plus, MaxQuant, FDR 1%); TFCP2 peptides detected with ITGA2; the methods paragraph names Flag-PTEN in 293T cells, not ITGA2

The chains behind the UniProt entries cited, without tags or fusion partners. Residues count along the entry.
UniProt P17301, residues 30-1181: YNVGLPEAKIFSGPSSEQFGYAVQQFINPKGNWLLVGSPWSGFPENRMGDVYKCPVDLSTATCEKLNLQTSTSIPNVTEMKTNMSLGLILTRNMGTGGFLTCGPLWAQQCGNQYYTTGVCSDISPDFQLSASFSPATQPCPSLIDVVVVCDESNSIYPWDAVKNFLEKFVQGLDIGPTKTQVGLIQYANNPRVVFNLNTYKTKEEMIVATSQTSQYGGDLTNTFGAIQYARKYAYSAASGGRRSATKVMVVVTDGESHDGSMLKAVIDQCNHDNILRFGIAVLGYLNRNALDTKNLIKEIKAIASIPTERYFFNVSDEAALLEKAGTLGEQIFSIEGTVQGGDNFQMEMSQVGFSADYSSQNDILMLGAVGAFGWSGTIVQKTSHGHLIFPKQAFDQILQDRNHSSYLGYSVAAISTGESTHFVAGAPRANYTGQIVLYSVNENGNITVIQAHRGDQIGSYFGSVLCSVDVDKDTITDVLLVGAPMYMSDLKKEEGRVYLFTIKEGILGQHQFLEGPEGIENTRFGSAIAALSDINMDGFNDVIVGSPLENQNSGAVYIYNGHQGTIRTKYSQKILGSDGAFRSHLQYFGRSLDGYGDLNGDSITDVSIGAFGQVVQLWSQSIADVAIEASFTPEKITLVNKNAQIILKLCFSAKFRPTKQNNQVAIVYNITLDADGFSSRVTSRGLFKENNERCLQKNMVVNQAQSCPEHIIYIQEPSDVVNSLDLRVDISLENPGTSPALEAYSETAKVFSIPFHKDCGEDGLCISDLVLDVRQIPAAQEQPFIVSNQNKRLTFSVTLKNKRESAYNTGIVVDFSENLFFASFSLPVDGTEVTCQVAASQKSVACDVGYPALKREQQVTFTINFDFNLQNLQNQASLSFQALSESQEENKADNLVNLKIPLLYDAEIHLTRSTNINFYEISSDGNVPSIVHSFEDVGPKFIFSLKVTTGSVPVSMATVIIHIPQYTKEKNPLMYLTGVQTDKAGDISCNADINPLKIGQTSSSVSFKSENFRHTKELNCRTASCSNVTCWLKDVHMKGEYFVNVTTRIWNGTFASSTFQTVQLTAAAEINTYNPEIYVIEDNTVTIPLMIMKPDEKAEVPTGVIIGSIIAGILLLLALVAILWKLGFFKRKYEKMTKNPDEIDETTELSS

B1: Transcription factor CP2 (protein, UniProt Q12800 1-502)
chain: MAWALKLPLADEVIESGLVQDFDASLSGIGQELGAGAYSMSDVLALPIFKQEESSLPPDNENKILPFQYVLCAATSPAVKLHDETLTYLNQGQSYEIRMLDNRKLGELPEINGKLVKSIFRVVFHDRRLQYTEHQQLEGWRWNRPGDRILDIDIPMSVGIIDPRANPTQLNTVEFLWDPAKRTSVFIQVHCISTEFTMRKHGGEKGVPFRVQIDTFKENENGEYTEHLHSASCQIKVFKPKGADRKQKTDREKMEKRTPHEKEKYQPSYETTILTECSPWPEITYVNNSPSPGFNSSHSSFSLGEGNGSPNHQPEPPPPVTDNLLPTTTPQEAQQWLHRNRFSTFTRLFTNFSGADLLKLTRDDVIQICGPADGIRLFNALKGRMVRPRLTIYVCQESLQLREQQQQQQQQQQKHEDGDSNGTFFVYHAIYLEELTAVELTEKIAQLFSISPCQISQIYKQGPTGIHVLISDEMIQNFQEEACFILDTMKAETNDSYHIILK
  binding: binds

Reference: publication PMC8862343
